Measured data: PubChem BioAssay AID504786 (Drosophila RNAi Screening Center, 2011)

Assay: 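Positive regulators of HIF-driven reporter output in Drosophila cells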 (primary screen)
Cells: Drosophila S2 cells with a stable HIF luciferase reporter
Reagents: long dsRNA against Drosophila genes, about 0.2 µg dsRNA per well of a 384-well plate
Timing: three days of knock-down, then 20 h of DFO before reading
Treatment: desferrioxamine (DFO) at 100 µM, an iron chelator that mimics hypoxia, for 20 h
Read-out: 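HIF reporter luminescence in cells given 100 µM DFO for 20 h, using the mouse ldh-a hypoxia-response element, scored as per-plate z-scores; higher means greater loss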
Reading the numbers: z-score: higher = stronger loss of HIF reporter signal
In all, the deposit lists about 21,000 reagents; below is a random part of those that have a named target and a result. 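Primary screen; positive scores mean lost reporter signal, so the sign may be inverted from the usual convention.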 Not all columns of the deposit are shown.

Against nompB (no mechanoreceptor potential B) [DRSC03701], the values are z-score, replicate 1 = -0.3.
nompB (no mechanoreceptor potential B) [DRSC03731] gave z-score, replicate 1 = -0.2.
CG7384 [DRSC03053] gave z-score, replicate 1 = -0.3.
With knock-down of RhoGEF3 (Rho guanine nucleotide exchange factor 3) [DRSC08351], the screen gave z-score, replicate 1 = -0.4.
For RhoGEF3 (Rho guanine nucleotide exchange factor 3) [DRSC08352], the values are z-score, replicate 1 = -0.2.
Depletion of CG14160 [DRSC10161] resulted in: z-score, replicate 1 = -0.2.
With knock-down of Not11 (CCR4-NOT transcription complex subunit 11) [DRSC04204], the screen gave z-score, replicate 1 = -0.2.
With knock-down of CG14515 [DRSC14867] the results were z-score, replicate 1 = -0.3.
With knock-down of atl (atlastin) [DRSC16089] the results were z-score, replicate 1 = -0.3.
Vha36-1 (Vacuolar H[+] ATPase 36kD subunit 1) [DRSC07098] showed z-score, replicate 1 = -0.3.
Against CG31730 [DRSC01308] the deposit lists z-score, replicate 1 = -0.4.
For meep [DRSC07948], the entry reads z-score, replicate 1 = 4.5.
CG4592 [DRSC02761] scored z-score, replicate 1 = -0.3.
Against AstA-R2 (Allatostatin A receptor 2) [DRSC14171], the entry reads z-score, replicate 1 = -0.3.
Knock-down of CG17024 (retired record) [DRSC02562] gave: z-score, replicate 1 = -0.2.
Depletion of CG8891 [DRSC03120] gave: z-score, replicate 1 = -0.4.
Silencing of CG11693 [DRSC14353] came out at: z-score, replicate 1 = -0.2.
Silencing of CG4702 [DRSC15626] gave: z-score, replicate 1 = -0.3.
Ald2 (Aldolase 2) [DRSC15799] showed z-score, replicate 1 = -0.3.
Silencing of CG15537 [DRSC15073] gave: z-score, replicate 1 = -0.5.
For CG30339 [DRSC05168], the values are z-score, replicate 1 = -0.2.
Depletion of CG9632 [DRSC16528] resulted in: z-score, replicate 1 = -0.3.
Fkbp39 (FK506-binding protein 39kD) [DRSC16667] gave z-score, replicate 1 = -0.3.
For CG9839 [DRSC16574], the values are z-score, replicate 1 = -0.4.
Against mh (maternal haploid) [DRSC20168] the deposit lists z-score, replicate 1 = 0.
Against CG17683 [DRSC21160] the deposit lists z-score, replicate 1 = -0.4.
Silencing of Cdk7 (Cyclin-dependent kinase 7) [DRSC18451] resulted in: z-score, replicate 1 = -0.1.
CG4822 [DRSC00669] showed z-score, replicate 1 = -0.1.
Depletion of CG9289 [DRSC03187] resulted in: z-score, replicate 1 = -0.4.
Depletion of dati (datilografo) [DRSC17128] resulted in: z-score, replicate 1 = -0.2.
dati (datilografo) [DRSC17153] scored z-score, replicate 1 = -0.3.
CG11168 [DRSC14292] scored z-score, replicate 1 = -0.2.
Depletion of fru (fruitless) [DRSC16951] came out at: z-score, replicate 1 = 3.4.
Knock-down of fru (fruitless) [DRSC16952] resulted in: z-score, replicate 1 = 0.2.
Depletion of fru (fruitless) [DRSC16953] gave: z-score, replicate 1 = 0.5.
Depletion of CG7335 [DRSC10816] gave: z-score, replicate 1 = -0.2.
Against gskt (gasket) [DRSC14056] the deposit lists z-score, replicate 1 = -0.4.
CG3842 [DRSC18326] gave z-score, replicate 1 = -0.3.
Against RhoGEF4 (Rho guanine nucleotide exchange factor 4) [DRSC11011] the deposit lists z-score, replicate 1 = -0.3.
Silencing of UQCR-C1 (Ubiquinol-cytochrome c reductase core protein 1) [DRSC15508] gave: z-score, replicate 1 = 1.4.

Reformatted: entries from further up.
Ald2 (Aldolase 2) [DRSC15799]
- z-score, replicate 1: -0.3

CG15537 [DRSC15073]
- z-score, replicate 1: -0.5

CG30339 [DRSC05168]
- z-score, replicate 1: -0.2

CG9632 [DRSC16528]
- z-score, replicate 1: -0.3

Fkbp39 (FK506-binding protein 39kD) [DRSC16667]
- z-score, replicate 1: -0.3

CG9839 [DRSC16574]
- z-score, replicate 1: -0.4
